Reference: the supplement of paper PMC10849652
This is one part of the list. Residues, ends and D or L forms follow the SMILES beside them. *: point of attachment. Cbz = O=C(OCc1ccccc1)*

Chains of the proteins cited; added tags and fusions are not shown. Lines headed by an entry give the natural chain unless they say otherwise; changes in a name come on top.
UniProt Q8N5K1: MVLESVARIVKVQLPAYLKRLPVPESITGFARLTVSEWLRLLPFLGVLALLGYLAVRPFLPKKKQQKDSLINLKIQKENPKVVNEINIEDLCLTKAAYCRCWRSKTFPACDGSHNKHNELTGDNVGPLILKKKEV
UniProt Q9UIV1, whole entry, looked up: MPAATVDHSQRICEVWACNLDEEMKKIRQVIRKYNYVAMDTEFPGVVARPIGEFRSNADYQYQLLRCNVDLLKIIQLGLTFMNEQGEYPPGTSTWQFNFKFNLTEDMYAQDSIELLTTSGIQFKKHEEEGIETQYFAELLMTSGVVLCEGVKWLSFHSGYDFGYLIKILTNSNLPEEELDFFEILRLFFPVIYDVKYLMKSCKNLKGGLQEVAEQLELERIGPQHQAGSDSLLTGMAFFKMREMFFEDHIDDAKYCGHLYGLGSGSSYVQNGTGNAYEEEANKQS
UniProt Q13057: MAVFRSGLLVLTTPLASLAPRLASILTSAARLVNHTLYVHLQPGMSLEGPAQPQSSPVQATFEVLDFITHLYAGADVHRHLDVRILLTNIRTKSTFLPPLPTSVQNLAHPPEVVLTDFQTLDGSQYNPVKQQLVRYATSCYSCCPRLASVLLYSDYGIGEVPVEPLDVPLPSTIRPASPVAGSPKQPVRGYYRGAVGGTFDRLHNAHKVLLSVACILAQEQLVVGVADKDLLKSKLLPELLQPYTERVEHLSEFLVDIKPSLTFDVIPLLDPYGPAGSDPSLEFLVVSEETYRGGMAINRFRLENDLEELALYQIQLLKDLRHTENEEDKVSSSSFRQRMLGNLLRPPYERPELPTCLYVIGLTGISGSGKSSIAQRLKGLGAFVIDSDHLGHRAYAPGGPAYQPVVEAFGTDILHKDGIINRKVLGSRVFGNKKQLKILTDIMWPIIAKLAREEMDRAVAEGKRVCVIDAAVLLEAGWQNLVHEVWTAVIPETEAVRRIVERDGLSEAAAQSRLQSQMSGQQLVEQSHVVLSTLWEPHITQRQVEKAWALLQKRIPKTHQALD
UniProt Q8NFW8: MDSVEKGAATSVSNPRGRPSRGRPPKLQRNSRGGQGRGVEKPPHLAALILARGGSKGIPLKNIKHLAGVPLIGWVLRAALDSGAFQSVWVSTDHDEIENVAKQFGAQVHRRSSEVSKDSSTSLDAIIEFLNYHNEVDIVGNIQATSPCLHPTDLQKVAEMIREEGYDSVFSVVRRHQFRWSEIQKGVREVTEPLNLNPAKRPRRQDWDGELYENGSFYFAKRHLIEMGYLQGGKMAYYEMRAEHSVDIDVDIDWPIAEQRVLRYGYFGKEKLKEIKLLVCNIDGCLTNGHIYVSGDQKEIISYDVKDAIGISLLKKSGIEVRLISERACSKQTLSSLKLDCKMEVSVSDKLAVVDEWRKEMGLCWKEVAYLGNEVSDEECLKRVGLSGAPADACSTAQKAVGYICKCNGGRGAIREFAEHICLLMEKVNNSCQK
UniProt P61024, whole entry, looked up: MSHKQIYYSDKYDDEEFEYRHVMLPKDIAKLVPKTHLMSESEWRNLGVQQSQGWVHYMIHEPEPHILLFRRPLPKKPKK
UniProt Q9H6Q4: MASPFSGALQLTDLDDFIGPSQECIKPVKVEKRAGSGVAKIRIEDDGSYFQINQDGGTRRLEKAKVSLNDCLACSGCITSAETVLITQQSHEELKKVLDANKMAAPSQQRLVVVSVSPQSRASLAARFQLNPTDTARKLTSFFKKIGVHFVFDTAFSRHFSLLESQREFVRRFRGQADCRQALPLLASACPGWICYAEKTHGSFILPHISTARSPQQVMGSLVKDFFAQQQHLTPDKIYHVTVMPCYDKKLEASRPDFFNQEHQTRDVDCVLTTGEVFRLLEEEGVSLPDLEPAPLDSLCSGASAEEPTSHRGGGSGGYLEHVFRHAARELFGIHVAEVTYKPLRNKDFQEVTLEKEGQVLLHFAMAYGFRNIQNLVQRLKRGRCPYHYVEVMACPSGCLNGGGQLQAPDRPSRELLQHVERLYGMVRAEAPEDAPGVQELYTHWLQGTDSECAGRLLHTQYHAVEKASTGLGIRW
UniProt O75175, whole entry, looked up: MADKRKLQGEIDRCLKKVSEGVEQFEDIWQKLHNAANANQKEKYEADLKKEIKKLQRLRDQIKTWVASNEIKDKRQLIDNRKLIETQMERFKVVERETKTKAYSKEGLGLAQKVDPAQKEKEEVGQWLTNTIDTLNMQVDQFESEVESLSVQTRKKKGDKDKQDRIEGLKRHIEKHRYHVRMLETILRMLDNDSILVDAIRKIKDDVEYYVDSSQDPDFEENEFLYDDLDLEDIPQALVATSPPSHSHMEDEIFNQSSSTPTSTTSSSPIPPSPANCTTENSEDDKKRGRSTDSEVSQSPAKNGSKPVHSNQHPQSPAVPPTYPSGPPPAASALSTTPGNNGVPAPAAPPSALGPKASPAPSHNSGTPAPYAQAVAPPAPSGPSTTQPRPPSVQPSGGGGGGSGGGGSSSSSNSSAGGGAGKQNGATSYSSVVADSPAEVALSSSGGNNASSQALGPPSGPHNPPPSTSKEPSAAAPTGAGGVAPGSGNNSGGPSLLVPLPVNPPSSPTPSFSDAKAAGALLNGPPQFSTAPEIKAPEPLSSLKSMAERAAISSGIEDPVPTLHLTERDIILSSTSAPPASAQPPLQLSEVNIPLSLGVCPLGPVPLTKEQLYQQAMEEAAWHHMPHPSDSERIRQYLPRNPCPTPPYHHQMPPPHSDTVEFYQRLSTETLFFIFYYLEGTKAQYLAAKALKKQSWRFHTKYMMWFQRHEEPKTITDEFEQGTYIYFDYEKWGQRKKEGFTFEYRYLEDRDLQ
UniProt O43529: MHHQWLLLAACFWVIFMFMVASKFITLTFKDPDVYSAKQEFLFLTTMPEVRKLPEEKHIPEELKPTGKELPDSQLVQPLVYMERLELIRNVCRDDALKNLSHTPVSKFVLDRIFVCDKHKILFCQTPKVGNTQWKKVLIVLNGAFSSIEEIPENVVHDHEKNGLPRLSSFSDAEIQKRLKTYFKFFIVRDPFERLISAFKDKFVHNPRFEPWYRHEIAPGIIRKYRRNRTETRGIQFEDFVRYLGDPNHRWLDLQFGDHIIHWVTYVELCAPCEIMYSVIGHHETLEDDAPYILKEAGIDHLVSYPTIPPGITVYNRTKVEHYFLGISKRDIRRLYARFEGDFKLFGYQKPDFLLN
UniProt Q9H5X1: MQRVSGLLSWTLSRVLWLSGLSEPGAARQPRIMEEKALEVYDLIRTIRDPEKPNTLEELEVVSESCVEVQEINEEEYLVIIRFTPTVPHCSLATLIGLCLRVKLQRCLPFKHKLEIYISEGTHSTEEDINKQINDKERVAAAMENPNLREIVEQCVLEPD
UniProt Q9NZ45: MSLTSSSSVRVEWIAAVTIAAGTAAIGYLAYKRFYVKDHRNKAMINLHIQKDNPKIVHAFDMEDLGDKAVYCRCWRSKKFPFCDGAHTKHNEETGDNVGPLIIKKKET
UniProt Q9BW66: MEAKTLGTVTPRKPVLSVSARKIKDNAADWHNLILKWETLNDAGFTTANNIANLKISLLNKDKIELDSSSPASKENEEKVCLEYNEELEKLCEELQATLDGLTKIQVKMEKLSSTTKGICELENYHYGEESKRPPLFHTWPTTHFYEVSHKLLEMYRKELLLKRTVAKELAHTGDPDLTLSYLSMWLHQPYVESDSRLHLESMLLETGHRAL
UniProt Q9NZN8, whole entry, looked up: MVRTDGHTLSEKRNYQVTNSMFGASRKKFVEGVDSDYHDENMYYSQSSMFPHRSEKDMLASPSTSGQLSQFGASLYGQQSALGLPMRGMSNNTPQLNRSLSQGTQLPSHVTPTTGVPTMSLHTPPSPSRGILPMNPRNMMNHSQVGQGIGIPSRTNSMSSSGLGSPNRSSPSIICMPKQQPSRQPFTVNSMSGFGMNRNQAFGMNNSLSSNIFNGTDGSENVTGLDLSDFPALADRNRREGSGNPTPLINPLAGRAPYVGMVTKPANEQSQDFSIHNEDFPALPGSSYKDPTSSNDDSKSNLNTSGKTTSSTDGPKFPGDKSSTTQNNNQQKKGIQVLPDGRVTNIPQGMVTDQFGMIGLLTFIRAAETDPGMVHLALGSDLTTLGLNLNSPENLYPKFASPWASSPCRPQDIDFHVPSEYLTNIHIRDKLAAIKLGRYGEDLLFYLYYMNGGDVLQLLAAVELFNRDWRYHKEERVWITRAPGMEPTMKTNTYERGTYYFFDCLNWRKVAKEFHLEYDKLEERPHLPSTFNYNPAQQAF
UniProt O43405: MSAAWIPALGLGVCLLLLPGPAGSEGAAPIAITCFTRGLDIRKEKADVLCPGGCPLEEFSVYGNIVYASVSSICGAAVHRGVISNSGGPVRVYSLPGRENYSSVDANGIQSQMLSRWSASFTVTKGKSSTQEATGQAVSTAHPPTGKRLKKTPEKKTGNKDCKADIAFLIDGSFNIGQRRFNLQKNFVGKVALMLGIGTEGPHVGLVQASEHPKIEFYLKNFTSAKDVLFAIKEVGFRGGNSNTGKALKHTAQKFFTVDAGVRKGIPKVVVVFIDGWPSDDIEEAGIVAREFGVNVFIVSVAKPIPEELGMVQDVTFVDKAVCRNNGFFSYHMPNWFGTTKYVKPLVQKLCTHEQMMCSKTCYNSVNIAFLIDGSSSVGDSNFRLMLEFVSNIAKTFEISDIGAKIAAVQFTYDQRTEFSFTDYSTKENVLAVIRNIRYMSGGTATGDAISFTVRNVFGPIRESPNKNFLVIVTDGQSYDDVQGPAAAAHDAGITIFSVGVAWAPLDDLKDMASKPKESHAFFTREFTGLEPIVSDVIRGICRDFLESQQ
UniProt Q6P4Q7: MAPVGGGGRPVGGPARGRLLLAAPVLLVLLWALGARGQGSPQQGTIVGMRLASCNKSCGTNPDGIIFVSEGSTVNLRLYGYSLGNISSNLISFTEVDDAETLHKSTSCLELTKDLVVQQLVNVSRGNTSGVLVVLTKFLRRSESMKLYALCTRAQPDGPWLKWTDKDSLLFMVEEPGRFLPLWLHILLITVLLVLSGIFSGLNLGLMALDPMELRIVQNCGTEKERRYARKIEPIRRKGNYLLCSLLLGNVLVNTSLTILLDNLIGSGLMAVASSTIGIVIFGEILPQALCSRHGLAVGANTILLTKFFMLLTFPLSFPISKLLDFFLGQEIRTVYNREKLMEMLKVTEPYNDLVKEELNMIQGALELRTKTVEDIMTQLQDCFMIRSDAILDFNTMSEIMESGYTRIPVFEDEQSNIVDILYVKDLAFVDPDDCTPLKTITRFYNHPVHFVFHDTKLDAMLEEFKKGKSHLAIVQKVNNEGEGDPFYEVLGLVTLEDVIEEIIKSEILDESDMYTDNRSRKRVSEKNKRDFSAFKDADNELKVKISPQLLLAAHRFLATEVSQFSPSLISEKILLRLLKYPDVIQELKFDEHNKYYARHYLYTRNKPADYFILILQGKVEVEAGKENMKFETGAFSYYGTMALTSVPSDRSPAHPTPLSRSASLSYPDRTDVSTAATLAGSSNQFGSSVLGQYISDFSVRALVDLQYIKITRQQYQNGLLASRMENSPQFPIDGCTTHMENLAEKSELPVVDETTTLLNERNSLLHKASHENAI

Key:
Assay in all cases: log2 fold change, soluble protein after heating vs DMSO (PISA); higher = thermal stabilisation; K562 cells, 10 uM, 30 min; active = over 0.2 and 3.5 SD of the protein, either way, in both replicates (recomputed)
erlotinib = compound: C#Cc1cccc(Nc2ncnc3cc(OCCOC)c(OCCOC)cc23)c1 [erlotinib]
Procedure, shortened: (§1)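 K562 cells at 2×10^6 cells/mL were treated for 30 min with 10 μM compound, and aliquots were heated for 3 min over 48°C-58°C before pooling. Extraction used PBS with 0.5% NP-40 at 4°C, and soluble protein was the supernatant after 21,000xg for 90 min, measured by TMTpro 16plex LC-MS/MS with channel sums equalised. Thermal stability values, relative to control samples and from duplicates, are log2 fold changes.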

[1] = compound: C/C(=N\NC(=O)C1=CC(=CC=C1)S(=O)(=O)N2CCOCC2)/C3=C(C=CC(=C3)Cl)O
Procedure, shortened: as §1

[2] = compound: C1=CC(=C(C=C1Cl)C2=NC3=NC=CN=C3C(=N2)NC4=CC=NC=C4)F
Procedure, shortened: as §1

[3] = compound: C1=CC(=CC=C1C2=NC3=C(N2)C=C(C=C3)C(=O)N)OC4=CC=C(C=C4)Cl
Procedure, shortened: as §1

[4] = compound: C1=CC2=C(C=CC(=C2)/C=C\3/C(=O)NC(=NCC4=CC=CS4)S3)N=C1
Procedure, shortened: as §1

[5] = compound: C1=CC2=NC=CN=C2C=C1/C=C/3\C(=O)NC(=O)S3
Procedure, shortened: as §1

[6] = compound: C1=CC=C(C=C1)C2=NC(=C(N2)C3=CC=NC=C3)C4=CC(=C(C=C4)Cl)O
Procedure, shortened: as §1

[7] = compound: C1=CC=C2C(=C1)C3=NNC4=CC=CC(=C43)C2=O
Procedure, shortened: as §1

[8] = compound: C1CCN(C1)C(=O)NC2=CC=CC(=C2)NC3=NC=C(C(=N3)NCCC4=CN=CN4)Br
Procedure, shortened: as §1

[9] = compound: C1CN(CCC1(CC2=CC=C(C=C2)Cl)N)C3=NC=NC4=C3C=CN4
Procedure, shortened: as §1

IRAK-1-4 Inhibitor I = compound: C1COCCN1CCN2C3=CC=CC=C3N=C2NC(=O)C4=CC(=CC=C4)[N+](=O)[O-] [IRAK-1-4 Inhibitor I]
Procedure, shortened: as §1

ibrutinib = compound: C=CC(=O)N1CCC[C@@H](n2nc(-c3ccc(Oc4ccccc4)cc3)c3c(N)ncnc32)C1 [ibrutinib]
Procedure, shortened: as §1

[10] = compound: CC(=O)c1cnc2ccc(-c3cc(Cl)c(O)c(Cl)c3)nc2c1N[C@H]1CC[C@H](CN(C)C)CC1
Procedure, shortened: as §1

ralimetinib = compound: CC(C)(C)Cn1c(N)nc2ccc(-c3[nH]c(C(C)(C)C)nc3-c3ccc(F)cc3)nc21 [ralimetinib]
Procedure, shortened: as §1

[11] = compound: CC(C)(O)CC(=O)NCCn1ccc2ncnc(Nc3ccc(Oc4cccc(C(F)(F)F)c4)c(Cl)c3)c21
Procedure, shortened: as §1

[12] = compound: CC(C)C1=C2N=C(C=C(N2N=C1)NCC3=CC=CC=C3)NCCCCCCN
Procedure, shortened: as §1

[13] = compound: CC(C)C[C@@H](C=O)NC(=O)[C@H](CC(C)C)NC(=O)[C@H](CC(C)C)NC(=O)OCc1ccccc1
Procedure, shortened: as §1

pinometostat = compound: CC(C)N(C[C@H]1O[C@@H](n2cnc3c(N)ncnc32)[C@H](O)[C@@H]1O)[C@H]1C[C@@H](CCc2nc3cc(C(C)(C)C)ccc3[nH]2)C1 [pinometostat]
Procedure, shortened: as §1

[14] = compound: CC1=C(C(CC(=O)N1)C2=CC=C(C=C2)C(F)(F)F)C(=O)NC3=C(C=C4C(=C3)C=NN4)F
Procedure, shortened: as §1

[15] = compound: CC1=C(C2=C(C=C1)C(=O)C3=CC=CC=C3N2CCCN)C
Procedure, shortened: as §1

| Target | log2 fold change (erlotinib) | log2 fold change [1] | log2 fold change [2] | log2 fold change [3] | log2 fold change [4] | log2 fold change [5] | log2 fold change [6] | log2 fold change [7] | log2 fold change [8] | log2 fold change [9] | log2 fold change (IRAK-1-4 Inhibitor I) | log2 fold change (ibrutinib) | log2 fold change [10] | log2 fold change (ralimetinib) | log2 fold change [11] | log2 fold change [12] | log2 fold change [13] | log2 fold change (pinometostat) | log2 fold change [14] | log2 fold change [15] |
| --- | --- | --- | --- | --- | --- | --- | --- | --- | --- | --- | --- | --- | --- | --- | --- | --- | --- | --- | --- | --- |
| CISD2 (UniProt Q8N5K1) | inactive: -0.016 | inactive: -0.031 | inactive: 0.04 | inactive: -0.018 | inactive: -0.009 | inactive: 0.03 | inactive: 0 | inactive: -0.01 | inactive: 0.002 | inactive: 0.017 | inactive: 0.024 | inactive: 0.031 | inactive: 0.023 | inactive: -0.029 | inactive: -0.012 | inactive: 0.047 | inactive: -0.01 | inactive: -0.048 | inactive: 0.03 | inactive: 0.026 |
| CNOT7 (UniProt Q9UIV1) | inactive: 0.025 | inactive: -0.002 | inactive: -0.059 | inactive: 0.018 | inactive: 0.194 | inactive: -0.044 | inactive: 0.128 | inactive: 0.048 | inactive: -0.003 | inactive: 0.016 | inactive: -0.039 | inactive: 0.022 | inactive: -0.013 | inactive: -0.016 | inactive: -0.021 | inactive: -0.002 | inactive: 0.079 | inactive: 0.066 | – | inactive: 0.033 |
| COASY isoform 2 (UniProt Q13057) | inactive: -0.022 | inactive: 0.1 | inactive: 0.042 | inactive: -0.067 | inactive: 0.032 | inactive: 0.01 | inactive: 0.076 | inactive: 0.043 | inactive: -0.011 | inactive: 0.092 | inactive: 0.039 | inactive: 0.004 | inactive: -0.016 | inactive: -0.032 | inactive: -0.063 | inactive: 0.037 | inactive: -0.02 | inactive: 0.005 | – | inactive: 0.079 |
| CMAS (UniProt Q8NFW8) | inactive: -0.07 | inactive: -0.045 | inactive: -0.218 | inactive: 0.025 | inactive: -0.016 | inactive: 0.033 | inactive: -0.061 | inactive: -0.036 | inactive: -0.025 | inactive: -0.039 | inactive: -0.102 | inactive: -0.001 | inactive: 0.09 | inactive: 0.078 | inactive: 0 | inactive: 0.048 | inactive: 0.1 | inactive: 0.194 | inactive: 0.039 | inactive: 0.06 |
| CKS1B (UniProt P61024) | inactive: -0.014 | inactive: 0 | inactive: 0.028 | inactive: -0.013 | inactive: 0.044 | inactive: 0.029 | inactive: 0.11 | inactive: -0.045 | inactive: -0.012 | inactive: 0.034 | inactive: -0.011 | inactive: -0.008 | inactive: -0.127 | active: 0.222 | inactive: 0.001 | inactive: 0.027 | inactive: -0.031 | inactive: -0.044 | – | inactive: 0.054 |
| CIAO3 (UniProt Q9H6Q4) | inactive: 0.039 | inactive: 0.082 | inactive: 0.01 | inactive: -0.001 | inactive: 0.063 | inactive: -0.014 | inactive: -0.008 | inactive: -0.03 | inactive: -0.043 | inactive: 0.014 | inactive: 0.08 | inactive: -0.011 | inactive: -0.002 | inactive: -0.051 | inactive: -0.015 | inactive: -0.044 | inactive: 0.001 | inactive: -0.031 | inactive: -0.01 | inactive: 0.073 |
| COL1A1 (UniProt P02452) | inactive: -0.3 | inactive: 0.062 | inactive: 0.117 | inactive: 0.064 | inactive: -0.256 | inactive: -0.276 | inactive: -0.004 | inactive: 0.061 | inactive: 0.272 | inactive: 0.278 | inactive: 0.029 | inactive: -0.063 | inactive: 0.227 | inactive: 0.095 | inactive: 0.326 | inactive: 0.163 | inactive: -0.245 | inactive: -0.114 | – | inactive: -0.237 |
| CNOT3 (UniProt O75175) | inactive: -0.006 | inactive: 0.105 | inactive: 0.02 | inactive: -0.01 | inactive: 0 | inactive: -0.011 | inactive: 0.015 | inactive: 0.005 | inactive: 0 | inactive: -0.01 | inactive: 0 | inactive: -0.012 | inactive: -0.013 | inactive: 0.014 | inactive: -0.063 | inactive: -0.043 | inactive: -0.005 | inactive: 0.038 | inactive: -0.041 | inactive: 0.013 |
| CHST10 (UniProt O43529) | inactive: 0.013 | inactive: -0.168 | inactive: -0.144 | inactive: -0.058 | inactive: -0.111 | inactive: 0.03 | inactive: 0.067 | inactive: 0.101 | inactive: 0.008 | inactive: 0.06 | inactive: 0.056 | inactive: -0.062 | inactive: -0.135 | inactive: 0.059 | inactive: 0.042 | active: -0.435 | inactive: -0.003 | inactive: 0.082 | – | inactive: 0.036 |
| CIAO2A (UniProt Q9H5X1) | inactive: 0.007 | inactive: 0.038 | inactive: 0.038 | inactive: 0.033 | inactive: 0.026 | inactive: 0.041 | inactive: -0.022 | inactive: -0.057 | inactive: 0.007 | inactive: -0.001 | inactive: 0.05 | inactive: -0.035 | inactive: -0.083 | inactive: -0.013 | inactive: 0.028 | inactive: -0.175 | inactive: 0.017 | inactive: -0.053 | inactive: 0.037 | inactive: 0.061 |
| CISD1 (UniProt Q9NZ45) | inactive: -0.002 | inactive: -0.014 | inactive: 0.024 | inactive: 0.022 | inactive: -0.021 | inactive: 0.021 | inactive: -0.02 | inactive: -0.029 | inactive: 0.013 | inactive: 0.042 | inactive: 0.05 | inactive: 0.051 | inactive: 0.005 | inactive: -0.052 | inactive: 0.003 | inactive: 0.012 | inactive: -0.013 | inactive: -0.039 | inactive: -0.008 | inactive: 0.006 |
| CHURC1-FNTB (UniProt B4DL54) | inactive: 0.039 | inactive: -0.032 | inactive: 0.1 | inactive: -0.013 | inactive: -0.074 | inactive: 0.119 | inactive: 0.013 | inactive: -0.045 | inactive: 0.049 | inactive: 0.091 | inactive: -0.007 | inactive: 0.001 | inactive: 0.032 | inactive: -0.08 | inactive: -0.067 | inactive: 0.015 | inactive: 0.015 | inactive: 0.07 | – | inactive: -0.088 |
| CINP isoform 3 (UniProt Q9BW66) | inactive: 0.006 | inactive: -0.039 | inactive: -0.007 | inactive: 0.016 | inactive: 0.033 | inactive: 0.032 | inactive: -0.022 | inactive: -0.006 | inactive: 0.001 | inactive: 0.032 | inactive: 0.043 | inactive: 0.07 | inactive: 0.02 | inactive: -0.05 | inactive: -0.029 | inactive: 0.097 | inactive: 0.029 | inactive: 0.007 | inactive: 0.062 | inactive: 0.045 |
| CNOT2 (UniProt Q9NZN8) | inactive: 0.043 | inactive: 0.059 | inactive: 0.009 | inactive: -0.024 | inactive: 0.016 | inactive: 0.045 | inactive: -0.031 | inactive: -0.042 | inactive: -0.019 | inactive: -0.034 | inactive: 0.112 | inactive: 0.013 | inactive: -0.045 | inactive: -0.027 | inactive: -0.038 | inactive: -0.112 | inactive: 0.013 | inactive: 0.05 | – | inactive: 0.059 |
| COCH (UniProt O43405) | inactive: -0.083 | inactive: -0.028 | inactive: -0.044 | inactive: 0.007 | inactive: -0.098 | inactive: 0.007 | inactive: -0.002 | inactive: -0.072 | inactive: -0.043 | inactive: -0.101 | inactive: 0.001 | inactive: 0.058 | inactive: 0.045 | inactive: 0.041 | active: 0.331 | inactive: 0.021 | inactive: -0.019 | inactive: 0.043 | – | inactive: -0.353 |
| CNNM4 (UniProt Q6P4Q7) | inactive: 0.01 | inactive: 0.095 | inactive: -0.004 | inactive: 0.049 | inactive: -0.046 | inactive: 0.018 | inactive: -0.032 | inactive: -0.006 | inactive: -0.016 | inactive: 0.067 | inactive: 0.039 | inactive: 0.02 | inactive: 0.019 | inactive: 0.066 | inactive: 0.045 | inactive: 0.034 | inactive: 0.035 | inactive: -0.082 | inactive: -0.067 | inactive: 0.021 |

Another view of some results above:
Target	log2 fold change (erlotinib)	log2 fold change [1]	log2 fold change [2]	log2 fold change [3]	log2 fold change [4]	log2 fold change [5]	log2 fold change [6]	log2 fold change [7]	log2 fold change [8]	log2 fold change [9]	log2 fold change (IRAK-1-4 Inhibitor I)	log2 fold change (ibrutinib)	log2 fold change [10]	log2 fold change (ralimetinib)	log2 fold change [11]	log2 fold change [12]	log2 fold change [13]	log2 fold change (pinometostat)	log2 fold change [14]	log2 fold change [15]
COASY isoform 2 (UniProt Q13057)	inactive: -0.022	inactive: 0.1	inactive: 0.042	inactive: -0.067	inactive: 0.032	inactive: 0.01	inactive: 0.076	inactive: 0.043	inactive: -0.011	inactive: 0.092	inactive: 0.039	inactive: 0.004	inactive: -0.016	inactive: -0.032	inactive: -0.063	inactive: 0.037	inactive: -0.02	inactive: 0.005	–	inactive: 0.079
CMAS (UniProt Q8NFW8)	inactive: -0.07	inactive: -0.045	inactive: -0.218	inactive: 0.025	inactive: -0.016	inactive: 0.033	inactive: -0.061	inactive: -0.036	inactive: -0.025	inactive: -0.039	inactive: -0.102	inactive: -0.001	inactive: 0.09	inactive: 0.078	inactive: 0	inactive: 0.048	inactive: 0.1	inactive: 0.194	inactive: 0.039	inactive: 0.06
